This is an account of results in paper PMC4329186.

Construct, isoform or probe ends are uncertain for at least one entry. For some of these results: At least one verdict rests on a figure or table, not on a statement of the authors.

Series [1] has as its system human alpha-thrombin (human). In words: ctITP-NECEEM capillary electrophoresis. To be noted: SYBR Gold on-column label; Tris-HCl sample buffer, no added metal ions, 30 min incubation; Tris and glycine reagents for CE; commercial protein; label: SYBR Gold (on-column, noncovalent); folded or branched DNA.
In series [2] the test system is human alpha-thrombin (human). In words: ctITP capillary electrophoresis. As to conditions: 200 nM DNA, 200 nM thrombin, lower signal and resolution, Tris-HCl sample buffer, no added metal ions, 30 min incubation, Tris and glycine reagents for CE, commercial protein, label: SYBR Gold (on-column, noncovalent), folded or branched DNA.

The term Kd denotes the constant that tells how readily two partners part at equilibrium. Take “CCTCTCTATGGGCAGTCGGTGATAGTCCGTGGTAGGGCAGGTTGGGGTGACTTAAGGAGTTCAATATCTGAGTCGGAGACACGCAGGGATGAGATGG”: the Kd in series [1] was determined as 124 nM. Further, the binding result in series [2] (10 mM K+), in series [2] (10 mM Mg2+) and in series [2] (10 mM Na+) was “binds” each time.
